Assay results taken from patent US20220144930A1.
Results are given in words; binding and its absence hold for the method and conditions named. A result given as binding can be weak or reduced; the word gives no strength.

Assays:
[1] = target: recombinant human VEGF165 protein (human); assay: phage display library screening (scFv clones)
[2] = target: recombinant human VEGF165 protein (human); assay: phage ELISA of single scFv clones on coated VEGF165
[3] = target: recombinant human VEGF165 protein (human); assay: ELISA, protein coated at 0.1, 1 and 10 µg/mL, antibody 1 µg/mL
[4] = target: recombinant human VEGF165 protein (human); assay: summary of the ELISA results
[5] = target: recombinant human VEGF165 protein (human); assay: ELISA (legend of FIG. 4)
[6] = target: recombinant human VEGF165 protein (human); assay: ELISA (legend of FIG. 3)

Binder	binding [1]	binding [2]	binding [3]	binding [4]	binding [5]	binding [6]
humanized antibody VEGF-H988 (antibody, human IgG1, kappa, V domains shown) VH: QSVQESGPGLVKPSETLSLTCTVSGIDLSSYAISWVRQPPGKGLEYIGYIWNDLFTYYASWAKGRVTISVDTSKNQVDLKLSSVTAADTAVYFCARGTLGDYGGMDPWGQGTLVTVSS VL: ELQLTQSPSSLSASVGDRVTITCQSSKFLWQGRRLAWYQQKPGKVPKLLIYGASTLASGVPSRFKGSGSGTDFTLTISSLQPEDVATYYCAGYKSYDGDVVGFGGGTKVEIKR	–	–	binds	binds	binds	binds
rabbit antibody VEGF-R613 (antibody, rabbit IgG1) scFv: ELVMTQTPSPVSAAVGGTVTINCQSSQSVYSNNRLAWYQQKPGQPPKLLIYGASTLASGVPSRFKGSGSGTQFTLTISDVQCDDAATYYCAGYKSYDGDDVGFGGGTEVVVKSSGGGGSGGGGGGSSRSSQSVEESGGRLVTPGTPLTLTCTVSGIDLSSYAISWVRQAPGKGLEYIGYIWSTDNTYYASWAKGRFTISEASTTVDLKITSPTTEDTATYFCARGTLGDYNGMDPWGPGTLVTVSS	binds	binds	–	–	–	–

Results, then the binder that gave them:

binding [1]	binding [2]	binding [3]	binding [4]	binding [5]	binding [6]	Binder
binds	binds	–	–	–	–	rabbit antibody VEGF-R859 (antibody, rabbit IgG1) scFv: DVVMTQTAASVSEPVGGTVTIKCQASQSIRSWLSWYQQKPGQPPKLLIYQASKLASGVPSRFKGSGYGTEFTLTISDLECADAATYYCQNNYSFSKDGGAFGGGTEVVVKSSGGGGSGGGGGGSSRSSQSVEESGGRLVTPGTPLTLTCQVSGFSLNIYDMTWVRQAPGKGLEWIGIIAPDDSAYYANWAKGRFTISKTSTTVDLKMTSPTTEDTATYFCARNAYSSGWGGDLWGPGTLVTVSS
binds	binds	–	–	–	–	rabbit antibody VEGF-R988 (antibody, rabbit IgG1, V domains shown) VH: QSVEESGGRLVTPGTPLTLTCTVSGIDLSSYAISWVRQAPGKGLEYIGYIWNAGNTYYASWAKGRFTISKTSTTVDLKITSPTTEDTATYFCARGTLGDYNGMDPWGPGTLVTVSS VL: ELDLTQTPSPVSAAVGGTVTINCQSSQTIYANRRLAWYQQKPGQPPKLLIYGASTLASGVPSRFKGSGSGTQFTLTISGVQCDDAATYYCAGYKSYDGDDVGFGGGTEVVVK
binds	binds	–	–	–	–	rabbit antibody VEGF-R812 (antibody, rabbit IgG1) scFv: ELVLTQTPASVEAAVGGTVTIKCQASQSINSWLSWYQQKPGQRPKLLIYQASKLASGVPSRFKGSGSGTEYTLTISDLECADAATYYCQNNLGGGDGSYGLPFGGGTEVVVKSSGGGGSGGGGGGSSRSSQSLEESGGRLVTPGGSLTLTCTASGFDLGIYEITWVRQAPGKGLEWIGVIYGDGDTVYANWAKGRFTISKTSTTVDLKISSPTTEDTATYFCARNGYTTGWGGDLWGPGTLVTVSS
